Assay results from PubChem BioAssay AID2685 (National Center for Advancing Translational Sciences (NCATS), 2010).
“And” between values parts separate entries of the source, which are not always exact repeats. Identical values can stand only once. The list shows a part of the results. These are further read-outs of the screen, such as a control signal, another cell line or another target. No call is given for them. The list favours compounds with an active or inconclusive main result. The note in brackets gives the kind of curve behind each potency; many fits are weak.

Assay: qHTS Assay for Lipid Storage Modulators in Drosophila S3 Cells;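 on cell number change: cells counted by Cell Tracker Red CMTPX staining in the red channel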
Details: BODIPY lipid droplet fluorescence, 18-24 h; for cell number change: measured here: cell count max response, cells fed with added oleic acid
Summary of the method: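 Drosophila S3 cells got compounds at several concentrations plus oleic acid (400 uM solution). Laser-scanning cytometry with 488 nm excitation read lipid droplets at 500-530 nm and cells at 575-640 nm. Percent activity was relative to 20 uM Triacsin C.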

[1] = measured here: lipid fluorescence (Fed channel) AC50, cells fed with added oleic acid
[2] = measured here: cell number channel AC50, cells fed with added oleic acid

| Structure (SMILES) | cell number change | AC50 [1] | AC50 [2] |
| --- | --- | --- | --- |
| CNc1ccc(Br)cc(C(=O)/C=C/c2ccc(OC)cc2OC)c1=O | 0.874% | 20.6 µM [falling, single point] |  |
| CC(=O)Nc1ccc(OS(=O)(=O)c2ccccc2C)cc1 | -16.6% | 0.0291 µM [falling, full curve, poor fit] |  |
| CC(=O)Oc1ccc(C(=O)Nc2cc(C)ccc2NC(=O)COc2ccccc2)cc1 | -30.3% | 20.6 µM [falling, single point] | 16.4 µM [falling, single point] |
| COC(=O)CCC(=O)NC(=S)Nc1ccc(S(=O)(=O)Nc2cc(OC)nc(OC)n2)cc1 | -46.1% | 13 µM [falling, partial curve] | 20.6 µM [falling, partial curve] |
| Cc1ccc(-c2nnn(CC(=O)N(CCO)C(C(=O)NC3CCCCC3)c3ccncc3)n2)o1 (centres undefined) | 11.1% |  |  |
| CCNc1ccc(S(=O)(=O)N(C)C)cc1[N+](=O)[O-] | -3.16% | 13 µM [falling, single point] |  |
| CC(=O)c1sc(NC(=O)CS(=O)(=O)c2ccc(F)cc2)nc1C | 2.5% |  |  |
| O=c1nc2n(c3sc4c(c13)CCCC4)C(CBr)CS2 (centres undefined) | 7.48% | 16.4 µM [rising, single point] |  |
| CCOc1ccccc1C(=O)NCC(=O)NCC(c1ccc(OC)cc1)N1CCOCC1 (centres undefined) | 7.36% | 0.00517 µM [falling, full curve] |  |
| O=C(OCn1nnc2ccccc2c1=O)c1ccc2ccccc2n1 | 2.92% |  |  |
| COc1ccc(CNC(=O)COC(=O)CN2C(=O)NC3(CCCC3)C2=O)cc1 | 17.6% | 6.51 µM [rising, single point] |  |
| COCCNC(=O)C(OC(=O)C1=Cc2ccccc2OC1)C(C)C (centres undefined) | 13.7% | 20.6 µM [rising, single point] |  |
| COc1ccc(CCN2C(=O)C3C4CC(C5C(C(=O)N/N=C\c6ccc(Cl)cc6)=NOC45)C3C2=O)cc1OC (centres undefined) | 9.35% |  | 0.13 µM [falling, full curve, poor fit] |
| CC(C)(C)S(=O)(=O)/C(C#N)=N/Nc1ccc(S(C)(=O)=O)cc1 | -52.9% | 23.1 µM [falling, single point] | 1.84 µM [falling, full curve] |
| CC(=O)OCCN(CCOC(C)=O)c1c(C)[nH]c(=O)[nH]c1=O | 13.3% | 6.51 µM [falling, single point] |  |
| Cc1ccc(C2=NS(=O)(=O)N(C)C(C(=O)NC(C)c3ccccc3)=C2)cc1 (centres undefined) | 7.2% | 20.6 µM [falling, partial curve] |  |
| COC(=O)CNC(=O)Cn1nc(C)c([N+](=O)[O-])c1C |  | 5.8 µM [falling, single point] | 6.51 µM [falling, single point] |
| CC(C)n1cc(C(=O)N2CCCC(Nc3ccc(F)c(F)c3)C2)cn1 (centres undefined) | 64% |  | 29.1 µM [rising, single point] |
| O=C(Nc1ccncc1)C1CCN(S(=O)(=O)c2ccc(Cl)cc2)CC1 | 22.3% | 1.03 µM [rising, partial curve] |  |
| O=C(CN1CCN(C(=O)c2ccccc2)CC1)Nc1cccc(S(=O)(=O)N2CCCC2)c1 | 10.4% |  |  |

| Structure (SMILES) | cell number change | AC50 [1] | AC50 [2] |
| --- | --- | --- | --- |
| CCOC(=O)/C=C/C(=O)Nc1cccc([N+](=O)[O-])c1 | -60.4% | 29.1 µM [falling, single point] | 23.1 µM [falling, single point] |
| OC(COc1cccc2ccccc12)CN1CCCC1 (centres undefined) | -5.86% | 29.1 µM [rising, single point] |  |
| COc1ccc(OC)c(C2CC(=O)N3CN(c4cccc(Cl)c4C)CSC3=C2C#N)c1 (centres undefined) | -2.4% |  |  |
| N#C/C(=C\c1cccc([N+](=O)[O-])c1)c1ccccn1 | -4.81% | 3.66 µM [rising, partial curve] |  |
| O=C(NCc1cccnc1)C(=O)Nc1nccs1 | 46% |  |  |
| COc1ccc(C(=O)NCCS(=O)(=O)N2CCCCCC2)cc1 |  | 0.092 µM [falling, full curve, poor fit] |  |
| O=C(Nc1cccc(C(F)(F)F)c1)C1CC(=O)N(CCc2ccccc2)C1 (centres undefined) | 35% | 0.13 µM [rising, full curve, poor fit] | 29.1 µM [rising, single point] |
| O=C(c1cc(Br)ccc1O)N1CCN(S(=O)(=O)Cc2ccccc2)CC1 | -72.9% | 29.1 µM [falling, single point] | 20.6 µM [falling, single point] |
| CCC(C)NC(=O)C1CCC(=O)N1CCc1ccccc1 (centres undefined) | -27.3% | 4.61 µM [falling, full curve, poor fit] | 4.11 µM [falling, full curve, poor fit] |
| O=C(N/N=C/c1ccc(O)c(O)c1O)/C(=C/c1ccc([N+](=O)[O-])cc1)NC(=O)c1ccccc1 | 32.7% | 4.61 µM [rising, single point] | 4.11 µM [rising, partial curve, poor fit] |
| CCOC(=O)c1oc2nc3c(cc2c1N)COC(C)(C)C3 | 35.4% | 0.259 µM [rising, full curve, poor fit] | 1.84 µM [rising, full curve] |
| CC(C)(C)c1ccc(/C=N/NC(=O)Cc2c[nH]c3ccccc23)cc1 | -92% |  | 29.1 µM [falling, single point] |
| C=CCNC(=S)NNC(=O)c1cc(-c2cccnc2)nc2ccccc12 | -18.8% | 29.1 µM [rising, single point] |  |
| Cc1cccc(/N=C/c2c(O)n(Cc3ccc4c(c3)OCO4)c(=O)c3ccccc23)n1 |  | 0.00461 µM [rising, full curve, poor fit] | 0.058 µM [rising, full curve] |
| Cc1ccc(S(=O)(=O)N2CCN(C(=O)CCNC(=O)c3ccccc3Cl)CC2)cc1 | -94.5% |  | 29.1 µM [falling, single point] |
| CC(=O)C1=C(C)NC(=O)NC1c1cc(Br)ccc1OCC(N)=O (centres undefined) | -11.7% |  |  |
| COC(=O)c1ccc(C2c3[nH]c4ccccc4c3C[C@H]3C(=O)N(C4CCN(Cc5ccccc5)CC4)CC(=O)N23)cc1 (some centres undefined) | -0.917% |  |  |
| CCOc1ccc(CCNC(=O)CS(=O)Cc2nc(-c3ccc(OC)c(OC)c3)oc2C)cc1OCC (centres undefined) |  |  | 1.64 µM [falling, partial curve] |
| O=C(c1oc(=O)c2ccccc2c1-c1ccccc1)N1CCC(O)CC1 | 1.3% | 1.16 µM [falling, single point] |  |
| Cc1cccc(C)c1OCc1cc(C(=O)NCc2ccc(Cl)s2)no1 | -0.33% |  |  |

| Structure (SMILES) | cell number change | AC50 [1] | AC50 [2] |
| --- | --- | --- | --- |
| CCCc1cc(=O)oc2cc(C)cc(OCC(=O)N3CCC(C(N)=O)CC3)c12 | 30.7% |  | 0.651 µM [rising, full curve, poor fit] |
| COc1cccc(CC(=O)OCC(=O)NCC(=O)Nc2cccc(C)c2C)c1 | -15.6% |  |  |
| COc1ccc(NS(=O)(=O)c2cccc(C(=O)N3CCC3)c2)cc1 | 33.3% |  | 10.3 µM [rising, partial curve] |
| Cc1ccc(S(=O)(=O)NC(CC(C)C)C(=O)N2CC(C)OC(C)C2)cc1 (centres undefined) | 9.19% |  |  |
| Cc1ccc(C)c(SCC(=O)OCC(=O)N2CC(C)OC(C)C2)c1 (centres undefined) | -32.6% | 4.61 µM [falling, full curve] |  |
| CCc1ccc(OCC(O)Cn2c(N3CCCCC3)nc3c2c(=O)[nH]c(=O)n3C)cc1 (centres undefined) | -22.6% | 2.06 µM [rising, partial curve] |  |
| CCc1cc(=O)oc2cc(OC3CCCCC3=O)ccc12 (centres undefined) | 27.9% | 29.1 µM [falling, partial curve] |  |
| COc1ccc(C(=O)c2sc(Nc3ccccc3)nc2C)cc1 | 10.8% | 2.59 µM [rising, partial curve] |  |
| CC(C)(C)C(=O)[C@@H]1[C@@H]2C(=O)N(C3CCCCC3)C(=O)[C@@H]2[C@H]2c3ccccc3C=CN12 | 1.76% | 0.13 µM [falling, full curve, poor fit] |  |
| Cc1sc2nc(SCC(=O)NCc3ccco3)n(-c3ccccc3)c(=O)c2c1C | -0.388% | 3.26 µM [rising, single point] |  |
| O=C(COc1ccc(Cl)cc1)N1CCN(Cc2ccc3c(c2)OCO3)CC1 | 47.4% and 28.5% |  | 1.46 µM [rising, full curve] |
| COc1ccc(OC)c(NC(=O)CSc2nnc(-c3ccco3)n2-c2ccc(C(=O)O)cc2)c1 | -2.73% |  |  |
| Cc1ccc(CCNC(=O)C2CCN(S(=O)(=O)N3CCCCC3)CC2)cc1 | 8.94% | 1.84 µM [rising, partial curve, poor fit] |  |
| Cc1nn2c(NCC(C)C)c3c(nc2c1-c1ccccc1)CCC3 | 23.8% | 7.31 µM [falling, single point] |  |
| CCC(c1ccccc1)c1nc(-c2cccnc2)no1 (centres undefined) | -3.78% | 16.4 µM [rising, single point] |  |
| COc1ccc(S(=O)(=O)N2CCC(C(=O)NCCCc3ccccc3)CC2)cc1 | 74.9% |  | 29.1 µM [rising, single point] |
| Cn1c(=O)c2c(c3ccccc31)OC(=O)CC2c1cccnc1 (centres undefined) | -3.73% | 3.66 µM [falling, single point] |  |
| O=C1C2ON(c3ccccc3)C(c3cccnc3)C2C(=O)N1c1ccc(Cl)c(Cl)c1 (centres undefined) | 30.3% | 7.31 µM [rising, partial curve, poor fit] | 2.59 µM [rising, full curve, poor fit] |
| CN1C(=O)c2ccccc2OC1(C)Cc1ccccc1 (centres undefined) | -69% |  | 0.326 µM [falling, partial curve, poor fit] |
